Consider 39 targets from the supplement of paper PMC10849652.

Protein sequences, listed by entry. Tags and fused reporters are not part of them. Lines headed by an entry give the natural chain unless they say otherwise; changes in a name come on top.
UniProt Q9NQZ2: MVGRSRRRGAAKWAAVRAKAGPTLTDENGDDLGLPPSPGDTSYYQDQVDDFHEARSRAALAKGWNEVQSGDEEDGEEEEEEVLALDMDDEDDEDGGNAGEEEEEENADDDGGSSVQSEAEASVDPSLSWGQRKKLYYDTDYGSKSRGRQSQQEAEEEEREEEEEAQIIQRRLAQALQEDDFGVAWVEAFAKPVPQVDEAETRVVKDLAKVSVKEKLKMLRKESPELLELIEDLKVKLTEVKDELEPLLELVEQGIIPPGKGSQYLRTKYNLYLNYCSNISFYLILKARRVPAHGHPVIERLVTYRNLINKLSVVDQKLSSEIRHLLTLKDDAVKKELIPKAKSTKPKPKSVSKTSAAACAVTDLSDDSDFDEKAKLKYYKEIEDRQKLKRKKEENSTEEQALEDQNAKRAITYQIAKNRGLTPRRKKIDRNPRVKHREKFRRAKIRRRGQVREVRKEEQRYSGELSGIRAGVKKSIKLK
UniProt Q9P0L0: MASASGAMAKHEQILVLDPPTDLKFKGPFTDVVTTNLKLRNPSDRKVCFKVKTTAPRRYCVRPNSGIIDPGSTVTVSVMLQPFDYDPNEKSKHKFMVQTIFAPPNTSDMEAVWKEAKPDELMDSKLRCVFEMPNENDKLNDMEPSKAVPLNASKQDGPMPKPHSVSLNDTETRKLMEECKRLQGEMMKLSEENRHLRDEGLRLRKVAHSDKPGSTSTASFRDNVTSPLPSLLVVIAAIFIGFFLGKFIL
UniProt P26640: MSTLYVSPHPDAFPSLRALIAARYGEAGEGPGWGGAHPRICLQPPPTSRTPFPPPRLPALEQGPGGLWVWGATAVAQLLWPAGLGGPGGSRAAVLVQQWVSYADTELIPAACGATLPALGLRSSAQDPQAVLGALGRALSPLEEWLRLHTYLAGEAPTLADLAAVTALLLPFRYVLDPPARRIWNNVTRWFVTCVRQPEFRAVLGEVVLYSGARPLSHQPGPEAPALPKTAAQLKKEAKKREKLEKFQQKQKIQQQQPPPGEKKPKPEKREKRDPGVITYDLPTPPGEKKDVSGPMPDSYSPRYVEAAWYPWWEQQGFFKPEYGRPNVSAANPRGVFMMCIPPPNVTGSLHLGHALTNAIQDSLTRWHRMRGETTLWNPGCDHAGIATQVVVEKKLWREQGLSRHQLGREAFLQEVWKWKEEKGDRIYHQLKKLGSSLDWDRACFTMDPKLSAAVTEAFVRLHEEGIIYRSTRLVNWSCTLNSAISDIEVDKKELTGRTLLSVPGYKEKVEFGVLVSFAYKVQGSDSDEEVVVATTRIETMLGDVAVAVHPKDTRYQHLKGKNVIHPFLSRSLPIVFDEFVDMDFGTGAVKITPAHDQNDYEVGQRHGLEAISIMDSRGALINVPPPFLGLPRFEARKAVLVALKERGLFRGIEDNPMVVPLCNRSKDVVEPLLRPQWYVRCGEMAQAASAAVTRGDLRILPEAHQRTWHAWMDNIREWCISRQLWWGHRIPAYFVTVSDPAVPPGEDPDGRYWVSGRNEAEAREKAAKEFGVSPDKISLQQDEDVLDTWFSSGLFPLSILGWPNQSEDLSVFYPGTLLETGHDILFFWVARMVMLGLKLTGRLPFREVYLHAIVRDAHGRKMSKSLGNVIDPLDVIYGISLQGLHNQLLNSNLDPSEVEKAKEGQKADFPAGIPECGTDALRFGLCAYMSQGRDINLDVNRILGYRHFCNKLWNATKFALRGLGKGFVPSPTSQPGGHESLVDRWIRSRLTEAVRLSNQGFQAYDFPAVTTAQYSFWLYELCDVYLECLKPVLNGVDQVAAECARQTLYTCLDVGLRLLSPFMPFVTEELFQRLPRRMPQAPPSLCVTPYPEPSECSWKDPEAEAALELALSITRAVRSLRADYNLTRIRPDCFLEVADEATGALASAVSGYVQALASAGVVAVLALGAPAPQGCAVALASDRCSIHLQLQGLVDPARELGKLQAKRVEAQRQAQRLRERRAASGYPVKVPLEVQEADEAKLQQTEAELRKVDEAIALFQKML
UniProt P18206: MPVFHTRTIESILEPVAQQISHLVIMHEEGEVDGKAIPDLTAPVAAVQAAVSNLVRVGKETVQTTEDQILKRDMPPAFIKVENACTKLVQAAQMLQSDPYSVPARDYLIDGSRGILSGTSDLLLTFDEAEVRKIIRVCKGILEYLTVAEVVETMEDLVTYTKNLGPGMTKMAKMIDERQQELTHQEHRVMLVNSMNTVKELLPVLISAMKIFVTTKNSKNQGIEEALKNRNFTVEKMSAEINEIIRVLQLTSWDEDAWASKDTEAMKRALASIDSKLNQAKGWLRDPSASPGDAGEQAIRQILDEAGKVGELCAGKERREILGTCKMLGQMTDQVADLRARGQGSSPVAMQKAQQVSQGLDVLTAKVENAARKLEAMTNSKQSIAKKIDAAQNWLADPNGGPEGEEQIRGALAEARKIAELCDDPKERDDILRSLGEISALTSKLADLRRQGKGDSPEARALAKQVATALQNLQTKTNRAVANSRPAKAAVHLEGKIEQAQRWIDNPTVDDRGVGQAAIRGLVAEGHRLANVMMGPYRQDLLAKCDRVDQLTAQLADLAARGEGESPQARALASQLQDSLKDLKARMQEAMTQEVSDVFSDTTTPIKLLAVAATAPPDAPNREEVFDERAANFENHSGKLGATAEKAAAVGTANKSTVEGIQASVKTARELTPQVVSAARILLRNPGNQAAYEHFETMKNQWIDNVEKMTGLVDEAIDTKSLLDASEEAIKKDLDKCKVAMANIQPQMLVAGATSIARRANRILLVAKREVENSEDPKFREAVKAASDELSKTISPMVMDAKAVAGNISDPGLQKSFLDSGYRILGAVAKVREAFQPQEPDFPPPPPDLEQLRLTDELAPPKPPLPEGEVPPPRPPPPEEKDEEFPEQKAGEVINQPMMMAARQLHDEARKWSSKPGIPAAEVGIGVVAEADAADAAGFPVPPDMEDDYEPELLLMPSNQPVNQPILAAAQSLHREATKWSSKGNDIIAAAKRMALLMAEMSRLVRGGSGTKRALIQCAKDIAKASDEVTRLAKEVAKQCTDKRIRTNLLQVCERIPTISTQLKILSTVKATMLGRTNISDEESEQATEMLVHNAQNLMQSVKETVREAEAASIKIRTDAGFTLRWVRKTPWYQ
UniProt Q93008, whole entry, looked up: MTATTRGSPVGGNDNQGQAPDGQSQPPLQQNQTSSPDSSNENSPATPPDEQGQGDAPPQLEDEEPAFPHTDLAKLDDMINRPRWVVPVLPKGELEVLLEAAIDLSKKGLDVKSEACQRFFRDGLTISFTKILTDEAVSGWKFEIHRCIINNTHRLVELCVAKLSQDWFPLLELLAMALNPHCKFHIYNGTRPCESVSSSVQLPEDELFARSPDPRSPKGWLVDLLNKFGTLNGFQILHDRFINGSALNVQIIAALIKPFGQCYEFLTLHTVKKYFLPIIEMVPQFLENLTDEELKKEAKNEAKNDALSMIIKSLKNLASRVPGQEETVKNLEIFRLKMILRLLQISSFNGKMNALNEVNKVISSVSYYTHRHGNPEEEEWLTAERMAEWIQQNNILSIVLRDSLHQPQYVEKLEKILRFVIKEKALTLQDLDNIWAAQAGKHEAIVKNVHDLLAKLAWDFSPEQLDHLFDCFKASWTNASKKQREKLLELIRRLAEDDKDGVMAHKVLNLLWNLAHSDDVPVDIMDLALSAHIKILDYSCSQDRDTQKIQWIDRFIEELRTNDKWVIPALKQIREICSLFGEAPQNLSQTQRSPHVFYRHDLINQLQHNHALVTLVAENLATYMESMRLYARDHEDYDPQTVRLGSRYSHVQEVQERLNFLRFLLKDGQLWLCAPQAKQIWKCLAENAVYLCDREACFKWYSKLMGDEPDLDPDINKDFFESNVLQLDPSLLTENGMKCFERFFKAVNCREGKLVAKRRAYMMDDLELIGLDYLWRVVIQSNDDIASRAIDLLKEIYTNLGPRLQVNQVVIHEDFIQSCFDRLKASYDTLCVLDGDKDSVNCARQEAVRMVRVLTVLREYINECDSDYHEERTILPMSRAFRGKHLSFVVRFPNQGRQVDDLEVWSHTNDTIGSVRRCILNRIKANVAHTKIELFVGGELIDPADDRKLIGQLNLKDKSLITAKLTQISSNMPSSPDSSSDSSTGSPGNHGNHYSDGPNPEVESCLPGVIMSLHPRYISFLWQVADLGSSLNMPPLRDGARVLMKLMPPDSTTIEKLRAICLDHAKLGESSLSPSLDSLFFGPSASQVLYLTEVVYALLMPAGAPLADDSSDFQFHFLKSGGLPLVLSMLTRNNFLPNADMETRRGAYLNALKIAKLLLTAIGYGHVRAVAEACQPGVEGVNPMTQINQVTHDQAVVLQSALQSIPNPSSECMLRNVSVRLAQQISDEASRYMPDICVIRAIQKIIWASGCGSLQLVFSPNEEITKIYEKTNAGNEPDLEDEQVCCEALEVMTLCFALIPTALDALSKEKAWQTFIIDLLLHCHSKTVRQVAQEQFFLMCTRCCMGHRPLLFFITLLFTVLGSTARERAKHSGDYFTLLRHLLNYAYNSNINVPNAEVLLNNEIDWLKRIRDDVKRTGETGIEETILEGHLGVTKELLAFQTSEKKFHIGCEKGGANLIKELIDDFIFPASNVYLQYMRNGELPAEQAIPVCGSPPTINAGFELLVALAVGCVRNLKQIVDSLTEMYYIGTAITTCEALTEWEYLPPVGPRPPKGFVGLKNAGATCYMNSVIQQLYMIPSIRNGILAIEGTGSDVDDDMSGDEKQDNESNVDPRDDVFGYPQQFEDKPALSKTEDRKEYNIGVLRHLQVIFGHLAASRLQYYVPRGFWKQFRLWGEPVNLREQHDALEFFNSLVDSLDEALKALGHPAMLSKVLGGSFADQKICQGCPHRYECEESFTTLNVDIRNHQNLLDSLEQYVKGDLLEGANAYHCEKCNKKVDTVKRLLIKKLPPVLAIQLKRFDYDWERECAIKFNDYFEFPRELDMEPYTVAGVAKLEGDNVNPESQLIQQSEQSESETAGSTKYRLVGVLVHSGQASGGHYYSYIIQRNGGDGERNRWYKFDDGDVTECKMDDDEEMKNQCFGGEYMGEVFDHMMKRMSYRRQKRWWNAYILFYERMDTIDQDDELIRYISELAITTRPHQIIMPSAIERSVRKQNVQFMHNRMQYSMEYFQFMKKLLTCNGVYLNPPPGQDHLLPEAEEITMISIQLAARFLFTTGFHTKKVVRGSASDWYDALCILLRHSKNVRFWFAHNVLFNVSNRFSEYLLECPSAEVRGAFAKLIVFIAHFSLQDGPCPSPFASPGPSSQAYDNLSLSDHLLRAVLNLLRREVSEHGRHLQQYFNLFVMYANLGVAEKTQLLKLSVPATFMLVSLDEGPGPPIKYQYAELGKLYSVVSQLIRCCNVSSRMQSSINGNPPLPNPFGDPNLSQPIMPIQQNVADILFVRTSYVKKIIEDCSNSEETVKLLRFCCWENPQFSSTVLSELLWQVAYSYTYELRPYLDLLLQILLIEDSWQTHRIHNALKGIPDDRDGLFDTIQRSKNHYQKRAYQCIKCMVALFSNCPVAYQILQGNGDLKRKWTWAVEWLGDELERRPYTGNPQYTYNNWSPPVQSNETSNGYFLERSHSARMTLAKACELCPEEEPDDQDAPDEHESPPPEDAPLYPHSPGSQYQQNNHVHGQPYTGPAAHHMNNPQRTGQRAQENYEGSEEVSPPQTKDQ
UniProt P54578: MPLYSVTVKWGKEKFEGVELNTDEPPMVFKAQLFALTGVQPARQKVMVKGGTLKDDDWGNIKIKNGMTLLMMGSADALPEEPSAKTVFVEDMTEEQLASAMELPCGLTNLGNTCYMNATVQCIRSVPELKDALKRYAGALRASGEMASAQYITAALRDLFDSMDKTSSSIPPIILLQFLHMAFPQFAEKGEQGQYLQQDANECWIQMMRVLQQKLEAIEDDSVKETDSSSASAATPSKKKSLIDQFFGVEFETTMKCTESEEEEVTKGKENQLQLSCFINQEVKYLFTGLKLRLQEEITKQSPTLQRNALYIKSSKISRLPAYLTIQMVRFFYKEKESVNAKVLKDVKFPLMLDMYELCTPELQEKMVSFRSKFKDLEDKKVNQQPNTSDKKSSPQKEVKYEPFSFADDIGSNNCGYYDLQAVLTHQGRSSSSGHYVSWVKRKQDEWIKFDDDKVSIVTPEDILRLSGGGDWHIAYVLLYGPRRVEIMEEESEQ
UniProt P50552: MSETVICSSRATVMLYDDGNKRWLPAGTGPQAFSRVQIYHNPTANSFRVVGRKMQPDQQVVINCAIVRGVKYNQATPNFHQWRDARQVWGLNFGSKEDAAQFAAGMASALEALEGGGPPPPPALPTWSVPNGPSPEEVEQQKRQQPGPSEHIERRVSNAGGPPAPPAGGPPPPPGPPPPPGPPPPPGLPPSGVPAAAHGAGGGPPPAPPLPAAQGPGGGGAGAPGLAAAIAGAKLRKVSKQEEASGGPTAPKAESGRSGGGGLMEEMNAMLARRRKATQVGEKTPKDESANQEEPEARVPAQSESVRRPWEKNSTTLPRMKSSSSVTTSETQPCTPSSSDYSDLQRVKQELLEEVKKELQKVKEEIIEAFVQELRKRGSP

The list shows a part of the results.

Compound in the first assay: NCC(=O)Nc1ccc(-n2nc(C(F)(F)F)cc2-c2ccc3c(ccc4ccccc43)c2)cc1
Description: log2 fold change, soluble protein after heating vs DMSO (PISA); higher = thermal stabilisation; K562 cells, 10 uM, 30 min; active = over 0.2 and 3.5 SD of the protein, either way, in both replicates (recomputed). The method, boiled down:
(§1)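 Soluble protein was defined as the supernatant after 21,000xg for 90 min. It came from K562 cells at 2×10^6 cells/mL given 10 μM compound for 30 min, heated in aliquots for 3 min across 48°C-58°C, pooled, and extracted in PBS with 0.5% NP-40 at 4°C, and was quantified by TMTpro 16plex LC-MS/MS with equalised channel sums. Thermal stability against control samples, from duplicates, is reported as log2 fold change.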
Regarding USE1 (UniProt Q9NZ43), the log2 fold change was inactive: 0.01.

In the case of URI1 (UniProt O94763), the log2 fold change is inactive: -0.033.

In the case of UMPS (UniProt P11172), the log2 fold change is inactive: 0.024.

On to UTP3 (UniProt Q9NQZ2), for which the log2 fold change is inactive: 0.087.

For the target UIMC1 (UniProt Q96RL1), the log2 fold change was inactive: 0.

USP8 (UniProt P40818): the log2 fold change is inactive: -0.051.

For the target UGGT2 (UniProt Q9NYU1), the log2 fold change was inactive: -0.032.

Regarding UBR4 isoform 2 (UniProt Q5T4S7), the log2 fold change is inactive: -0.003.

In the case of UBE3C (UniProt Q15386), the log2 fold change was inactive: -0.096.

Turning to UQCRFS1 (UniProt P47985), the log2 fold change was inactive: 0.118.

For UBQLN1 (UniProt Q9UMX0), the log2 fold change was inactive: -0.023.

As for UTP14A (UniProt Q9BVJ6), the log2 fold change was inactive: 0.076.

On to UBXN7 (UniProt O94888), for which the log2 fold change is inactive: 0.

Regarding VAMP4 (UniProt O75379), the log2 fold change was inactive: 0.085.

VAPA (UniProt Q9P0L0): the log2 fold change was inactive: -0.054.

As for VARS (UniProt P26640), the log2 fold change is inactive: -0.033.

Turning to UCKL1 (UniProt Q9NWZ5), the log2 fold change is inactive: -0.037.

On to USP48 isoform 8 (UniProt Q86UV5), for which the log2 fold change is inactive: -0.125.

In the case of VCL (UniProt P18206), the log2 fold change was inactive: 0.057.

UGGT1 (UniProt Q9NYU2): the log2 fold change was inactive: 0.017.

Regarding UQCC2 (UniProt Q9BRT2), the log2 fold change was inactive: 0.172.

With UBR7 (UniProt Q8N806), the log2 fold change is inactive: -0.018.

As for USP5 (UniProt P45974), the log2 fold change was inactive: -0.047.

For the target UQCRH (UniProt P07919), the log2 fold change was inactive: -0.001.

As to USP10 isoform 2 (UniProt Q14694), the log2 fold change was inactive: -0.028.

In the case of UROS (UniProt P10746), the log2 fold change is inactive: -0.05.

In the case of UCHL3 (UniProt P15374), the log2 fold change was inactive: -0.001.

Consider UFD1 isoform 1 (UniProt Q92890), for which the log2 fold change was inactive: -0.001.

As for VARS2, A0A0G2JL52, the log2 fold change was inactive: -0.062.

Consider VAPA isoform 2 (UniProt Q9P0L0), for which the log2 fold change was inactive: -0.023.

Turning to UQCRC2 (UniProt P22695), the log2 fold change is inactive: 0.051.

For USP15 (UniProt Q9Y4E8), the log2 fold change is inactive: -0.066.

Regarding UBE4B isoform 4 (UniProt O95155), the log2 fold change is inactive: -0.056.

As for UGT8 (UniProt Q16880), the log2 fold change was inactive: -0.132.

Take UROD (UniProt P06132): the log2 fold change was inactive: 0.05.

UEVLD (UniProt Q8IX04): the log2 fold change is inactive: -0.078.

In the case of USP9X (UniProt Q93008), the log2 fold change is inactive: -0.041.

For the target USP14 (UniProt P54578), the log2 fold change was inactive: -0.057.

Turning to VASP (UniProt P50552), the log2 fold change was inactive: -0.06.

Compound in the next assay: Nc1ccccc1NC(=O)c1ccc(CNC(=O)OCc2cccnc2)cc1 [entinostat]
The assay is described as above. Put shortly:
as §1
In the case of USE1 (UniProt Q9NZ43), the log2 fold change is inactive: -0.007.

Turning to URI1 (UniProt O94763), the log2 fold change was inactive: -0.001.

Take UMPS (UniProt P11172): the log2 fold change was inactive: 0.012.

Take UTP3 (UniProt Q9NQZ2): the log2 fold change was inactive: -0.019.

Take UIMC1 (UniProt Q96RL1): the log2 fold change was inactive: -0.057.

USP8 (UniProt P40818): the log2 fold change was inactive: 0.056.

UGGT2 (UniProt Q9NYU1): the log2 fold change is inactive: -0.034.

UBR4 isoform 2 (UniProt Q5T4S7): the log2 fold change was inactive: 0.029.

For UBE3C (UniProt Q15386), the log2 fold change was inactive: 0.025.

UQCRFS1 (UniProt P47985): the log2 fold change is inactive: 0.025.

On to UBQLN1 (UniProt Q9UMX0), for which the log2 fold change is inactive: 0.135.

Take UTP14A (UniProt Q9BVJ6): the log2 fold change is inactive: 0.012.

For UBXN7 (UniProt O94888), the log2 fold change was inactive: 0.047.

For the target VAMP4 (UniProt O75379), the log2 fold change is inactive: -0.052.

With VAPA (UniProt Q9P0L0), the log2 fold change is inactive: 0.004.

As to VARS (UniProt P26640), the log2 fold change was inactive: 0.016.

Take UCKL1 (UniProt Q9NWZ5): the log2 fold change was inactive: 0.026.

Regarding USP48 isoform 8 (UniProt Q86UV5), the log2 fold change was inactive: 0.351.

As to VCL (UniProt P18206), the log2 fold change is inactive: -0.004.

Consider UGGT1 (UniProt Q9NYU2), for which the log2 fold change was inactive: -0.001.

Take UQCC2 (UniProt Q9BRT2): the log2 fold change is inactive: -0.035.

On to UBR7 (UniProt Q8N806), for which the log2 fold change is inactive: -0.02.

For the target USP5 (UniProt P45974), the log2 fold change was inactive: 0.003.

As to UQCRH (UniProt P07919), the log2 fold change is inactive: -0.01.

With USP10 isoform 2 (UniProt Q14694), the log2 fold change was inactive: 0.019.

UROS (UniProt P10746): the log2 fold change is inactive: 0.023.

On to UCHL3 (UniProt P15374), for which the log2 fold change is inactive: 0.019.

For the target UFD1 isoform 1 (UniProt Q92890), the log2 fold change is inactive: 0.01.

For VARS2, A0A0G2JL52, the log2 fold change is inactive: 0.028.

Consider VAPA isoform 2 (UniProt Q9P0L0), for which the log2 fold change is inactive: 0.

On to UQCRC2 (UniProt P22695), for which the log2 fold change was inactive: -0.021.

As for USP15 (UniProt Q9Y4E8), the log2 fold change was inactive: 0.052.

On to UBE4B isoform 4 (UniProt O95155), for which the log2 fold change is inactive: 0.019.

Regarding UGT8 (UniProt Q16880), the log2 fold change is inactive: -0.107.

UROD (UniProt P06132): the log2 fold change is inactive: -0.061.

In the case of UEVLD (UniProt Q8IX04), the log2 fold change is inactive: 0.079.

In the case of USP9X (UniProt Q93008), the log2 fold change was inactive: 0.037.

With USP14 (UniProt P54578), the log2 fold change was inactive: 0.025.

As for VASP (UniProt P50552), the log2 fold change was inactive: 0.065.
